PubChem BioAssay AID652259, Drosophila RNAi Screening Center – 2013

- Aim: 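Genome-wide hunt for genes that control Wingless pathway activity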 (primary screen)
- System: Drosophila clone 8 imaginal disc epithelial cells
- Knock-down reagent: long dsRNA against Drosophila genes
- Treatment: pathway stimulated by co-transfected Wingless expression plasmid
- Measurement: 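Firefly luciferase from a tcf-site Wingless reporter, measured alongside co-transfected Renilla luciferase that tracks transfection; pathway stimulated by a Wingless plasmid; the firefly-to-Renilla ratio is not deposited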
- Reading the numbers: firefly reporter light: higher = more Wg reporter light, before normalisation; Renilla control light: higher = more transfected or surviving cells
- Active means: 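Strong candidates differ from their plate mean by at least two out of four per-plate statistical tests; weak candidates meet just one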
- Calls: active = candidate regulator (raises or lowers reporter); inactive = not a candidate
The deposit covers about 22,000 reagents; this is an unselected part of those that have a named target and a result. In the full data, 233 (1.1%) were called active. 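Light values are raw, unnormalised plate reads; the ratio scores behind the reporter calls were not deposited.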 Reagents against one gene are numbered here. A plus sign joins genes that one reagent is predicted to hit. Not stated in the record: the amount of reagent, the time to read-out, the dose of the treatment.

How did the screen score lncRNA:CR31044?
firefly reporter light, replicate 1: 6.86e5; firefly reporter light, replicate 2: 7.09e5; Renilla control light, replicate 1: 3.08e5; Renilla control light, replicate 2: 2.82e5; Outcome: inactive

With mago, what does the deposit list?
firefly reporter light, replicate 1: 1674; firefly reporter light, replicate 2: 8280; Renilla control light, replicate 1: 404; Renilla control light, replicate 2: 3136; Outcome: inactive

With Apl, how do the results read?
firefly reporter light, replicate 1: 9480; Renilla control light, replicate 1: 4119; Outcome: inactive

What did the screen give for CG2604?
firefly reporter light, replicate 1: 11226; Renilla control light, replicate 1: 2160; Outcome: inactive

With Pus1, how do the results read?
firefly reporter light, replicate 1: 19755; Renilla control light, replicate 1: 5287; Outcome: inactive

With CG31515, how do the results read?
firefly reporter light, replicate 1: 3783; Renilla control light, replicate 1: 603; Outcome: inactive

How did the screen score CG10799?
firefly reporter light, replicate 1: 3754; Renilla control light, replicate 1: 1985; Outcome: inactive

Which result is listed for be #1?
firefly reporter light, replicate 1: 3878; firefly reporter light, replicate 2: 9433; Renilla control light, replicate 1: 1345; Renilla control light, replicate 2: 4284; Outcome: inactive

For be #2, what was measured?
firefly reporter light, replicate 1: 12055; Renilla control light, replicate 1: 9012; Outcome: inactive

With be #3, how do the results read?
firefly reporter light, replicate 1: 27090; Renilla control light, replicate 1: 10692; Outcome: inactive

How did the screen score Fer3?
firefly reporter light, replicate 1: 6108; Renilla control light, replicate 1: 1936; Outcome: inactive

Which result is listed for CG2747?
firefly reporter light, replicate 1: 14004; Renilla control light, replicate 1: 3680; Outcome: inactive

What did the screen give for CG4880?
firefly reporter light, replicate 1: 3442; firefly reporter light, replicate 2: 10352; Renilla control light, replicate 1: 1174; Renilla control light, replicate 2: 2551; Outcome: inactive

Which result is listed for MED17?
firefly reporter light, replicate 1: 2548; firefly reporter light, replicate 2: 6016; Renilla control light, replicate 1: 1068; Renilla control light, replicate 2: 1362; Outcome: inactive

For Ada1-1 + Ada1-2 #1, how do the results read?
firefly reporter light, replicate 1: 31640; Renilla control light, replicate 1: 12560; Outcome: inactive

With Ada1-1 + Ada1-2 #2, what was measured?
firefly reporter light, replicate 1: 23506; Renilla control light, replicate 1: 9468; Outcome: inactive

What is on record for Opbp?
firefly reporter light, replicate 1: 2224; firefly reporter light, replicate 2: 7223; Renilla control light, replicate 1: 760; Renilla control light, replicate 2: 2148; Outcome: inactive

What did the screen give for CG32147?
firefly reporter light, replicate 1: 2641; Renilla control light, replicate 1: 1063; Outcome: inactive

How did the screen score CG14630 #1?
firefly reporter light, replicate 1: 17595; Renilla control light, replicate 1: 12649; Outcome: inactive

For CG14630 #2, how do the results read?
firefly reporter light, replicate 1: 11851; Renilla control light, replicate 1: 12662; Outcome: inactive

For Fpgs1, how do the results read?
firefly reporter light, replicate 1: 20546; Renilla control light, replicate 1: 11008; Outcome: inactive

For stnB + stnA #1, what does the deposit list?
firefly reporter light, replicate 1: 1788; Renilla control light, replicate 1: 1181; Outcome: inactive

For stnB + stnA #2, what does the deposit list?
firefly reporter light, replicate 1: 13926; Renilla control light, replicate 1: 7975; Outcome: inactive

What is on record for IntS10?
firefly reporter light, replicate 1: 5686; Renilla control light, replicate 1: 2593; Outcome: inactive

Which result is listed for CG12824?
firefly reporter light, replicate 1: 3360; firefly reporter light, replicate 2: 8563; Renilla control light, replicate 1: 672; Renilla control light, replicate 2: 4535; Outcome: inactive
